Laboratory results as given in paper PMC4575451.
These are yes or no findings as the source states them, for the method shown. Binding seen in cells or lysates may run through a third protein. Some results given as binding are weak or reduced against the parent protein; the word gives no strength.

The chains behind the UniProt entries cited, without tags or fusion partners.
UniProt Q5S007: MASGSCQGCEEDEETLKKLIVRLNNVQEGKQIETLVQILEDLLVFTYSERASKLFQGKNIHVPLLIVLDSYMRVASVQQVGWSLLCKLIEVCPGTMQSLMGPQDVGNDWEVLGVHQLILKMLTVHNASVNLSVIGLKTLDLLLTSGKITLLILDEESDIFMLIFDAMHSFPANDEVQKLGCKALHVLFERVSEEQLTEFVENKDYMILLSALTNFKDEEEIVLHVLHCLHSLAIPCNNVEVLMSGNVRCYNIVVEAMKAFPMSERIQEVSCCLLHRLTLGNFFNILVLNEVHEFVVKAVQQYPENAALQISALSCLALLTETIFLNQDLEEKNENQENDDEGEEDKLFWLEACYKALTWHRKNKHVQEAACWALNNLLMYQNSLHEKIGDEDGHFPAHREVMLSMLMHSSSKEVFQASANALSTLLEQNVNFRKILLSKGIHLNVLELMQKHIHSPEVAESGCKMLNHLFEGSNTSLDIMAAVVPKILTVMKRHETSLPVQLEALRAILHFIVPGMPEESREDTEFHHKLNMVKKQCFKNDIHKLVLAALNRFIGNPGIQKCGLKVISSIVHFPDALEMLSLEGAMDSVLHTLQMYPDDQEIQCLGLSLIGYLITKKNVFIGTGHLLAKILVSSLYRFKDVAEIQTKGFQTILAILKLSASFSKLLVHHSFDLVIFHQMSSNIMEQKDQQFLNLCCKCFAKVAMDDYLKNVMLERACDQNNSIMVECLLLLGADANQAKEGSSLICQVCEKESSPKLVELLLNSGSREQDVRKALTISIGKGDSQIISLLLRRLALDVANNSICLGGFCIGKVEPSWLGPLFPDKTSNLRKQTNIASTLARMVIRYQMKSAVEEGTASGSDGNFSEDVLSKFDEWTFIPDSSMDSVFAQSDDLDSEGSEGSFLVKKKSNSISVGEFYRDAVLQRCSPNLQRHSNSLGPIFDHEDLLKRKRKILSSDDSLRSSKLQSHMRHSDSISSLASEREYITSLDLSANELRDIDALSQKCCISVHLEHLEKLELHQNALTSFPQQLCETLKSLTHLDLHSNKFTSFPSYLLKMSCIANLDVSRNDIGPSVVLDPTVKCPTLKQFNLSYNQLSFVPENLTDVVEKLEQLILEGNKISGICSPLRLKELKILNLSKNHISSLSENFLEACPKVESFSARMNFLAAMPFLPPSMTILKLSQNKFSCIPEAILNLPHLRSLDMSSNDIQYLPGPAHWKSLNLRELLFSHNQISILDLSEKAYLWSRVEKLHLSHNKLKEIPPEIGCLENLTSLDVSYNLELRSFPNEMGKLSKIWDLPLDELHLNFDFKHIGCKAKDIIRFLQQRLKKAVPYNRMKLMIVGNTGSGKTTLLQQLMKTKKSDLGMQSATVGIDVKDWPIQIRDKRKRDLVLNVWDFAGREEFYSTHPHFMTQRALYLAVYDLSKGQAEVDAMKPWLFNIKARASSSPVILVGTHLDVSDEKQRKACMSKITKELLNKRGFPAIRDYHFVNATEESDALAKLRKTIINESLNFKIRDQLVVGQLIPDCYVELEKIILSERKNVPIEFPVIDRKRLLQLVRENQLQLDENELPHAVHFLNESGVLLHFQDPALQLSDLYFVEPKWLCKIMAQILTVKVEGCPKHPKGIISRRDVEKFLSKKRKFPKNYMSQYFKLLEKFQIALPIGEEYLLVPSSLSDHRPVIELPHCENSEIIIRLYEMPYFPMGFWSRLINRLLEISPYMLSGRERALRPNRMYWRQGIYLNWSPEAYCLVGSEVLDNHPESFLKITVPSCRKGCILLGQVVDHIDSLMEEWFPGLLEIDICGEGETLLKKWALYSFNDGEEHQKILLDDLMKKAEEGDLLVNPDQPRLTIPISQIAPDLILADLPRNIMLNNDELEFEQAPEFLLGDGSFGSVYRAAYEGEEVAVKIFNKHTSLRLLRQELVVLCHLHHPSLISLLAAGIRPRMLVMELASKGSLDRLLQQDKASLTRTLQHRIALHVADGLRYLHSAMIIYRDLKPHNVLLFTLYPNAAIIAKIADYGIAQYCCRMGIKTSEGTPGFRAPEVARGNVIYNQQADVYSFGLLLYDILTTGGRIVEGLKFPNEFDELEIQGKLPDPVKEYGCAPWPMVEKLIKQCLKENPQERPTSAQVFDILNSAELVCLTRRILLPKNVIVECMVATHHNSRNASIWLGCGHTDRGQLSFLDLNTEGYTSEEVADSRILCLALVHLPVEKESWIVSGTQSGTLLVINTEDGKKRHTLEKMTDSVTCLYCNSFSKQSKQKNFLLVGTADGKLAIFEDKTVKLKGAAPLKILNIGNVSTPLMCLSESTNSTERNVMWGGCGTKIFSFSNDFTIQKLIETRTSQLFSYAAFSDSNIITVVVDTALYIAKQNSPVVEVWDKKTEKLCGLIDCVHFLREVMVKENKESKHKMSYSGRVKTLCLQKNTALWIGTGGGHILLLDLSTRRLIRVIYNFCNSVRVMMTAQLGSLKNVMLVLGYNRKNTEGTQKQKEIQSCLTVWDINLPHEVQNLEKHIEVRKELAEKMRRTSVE

Legend:
[1] = molecular target: Leucine-rich repeat kinase 2 (LRRK2) (human (endogenous in SH-SY5Y)) (UniProt Q5S007); test: co-IP; lysates of differentiated SH-SY5Y cells, precleared, immunoprecipitated with anti-p53 or anti-LRRK2 (MJFF2) at 4 °C for 8 h, protein-A agarose for 24 h, Western blot; control IgG IP alongside
[2] = molecular target: p53 (human (endogenous in SH-SY5Y)) (UniProt P04637); test: as above

binding [1]	binding [2]	Substance
binds		p53 (from UniProt P04637 1-393)
	binds	Leucine-rich repeat kinase 2 (LRRK2) (from UniProt Q5S007 1-2527)
